The supplement of paper PMC3047530
The other results are listed elsewhere or left out. Repeats are few or missing, and single values can be far off.

tested on: Geomyces destructans; experiment: growth inhibition relative to DMSO control; higher = stronger growth inhibition; conditions: 10 µM; 15 °C; incubation time 10 days

Row | SMILES | growth inhibition [%]
1 | CC(=O)O[C@H]1C[C@@H](OC(C)=O)C(C)(C)C2C[C@@H](OC(C)=O)[C@]3(C)C(CC[C@@]4(C)[C@H](c5ccoc5)C(=O)[C@H]5O[C@]543)[C@]21C (some centres undefined) | -6.96
2 | CCCN(CCC)c1c([N+](=O)[O-])cc(C(F)(F)F)cc1[N+](=O)[O-] | 2.16
3 | C=C(C)[C@H]1CN[C@H](C(=O)O)[C@H]1CC(=O)O | -6.12
4 | C[C@@H]1CC[C@@]2(OC1)O[C@H]1[C@@H](O)[C@H]3[C@@H]4CC[C@H]5C[C@@H](O[C@@H]6O[C@H](CO)[C@H](O[C@@H]7O[C@H](CO)[C@@H](O)[C@H](O[C@@H]8OC[C@@H](O)[C@H](O)[C@H]8O)[C@H]7O[C@@H]7O[C@H](CO)[C@H](O)[C@H](O[C@@H]8O[C@H](CO)[C@@H](O)[C@H](O)[C@H]8O)[C@H]7O)[C@H](O)[C@H]6O)[C@H](O)C[C@]5(C)[C@H]4CC[C@]3(C)[C@H]1[C@@H]2C | 84.2
5 | CC(C)N(C(=O)CCl)c1ccccc1 | 19.2
6 | COc1cc2c(cc1OC)C(=O)c1ccc(OC)c(OC)c1OCC(=O)C2 | 17.5
7 | Cc1cc(O)ccc1Cl | 3.19
8 | C=C[C@H]1CN2CC[C@H]1C[C@H]2[C@H](OC(=O)OCC)c1ccnc2ccc(OC)cc12 | -39.1
9 | CC(C)=CCCC1(C)C=Cc2c(O)c3c(c(CC=C(C)C)c2O1)OC12C(CC4CC1C(C)(C)OC2(C/C=C(/C)C(=O)O)C4O)C3=O (centres undefined) | -14.9
10 | CC[C@H]1CN2CC[C@H]1C[C@@H]2[C@@H](O)c1ccnc2ccc(OC)cc12 | -27.4
11 | CC(C)N(CCC(C(N)=O)(c1ccccc1)c1ccccn1)C(C)C (centres undefined) | -6.39
12 | COC(=O)/C(C)=C\CC12OC(C)(C)C3CC(C=C4C(=O)c5c(OC)c6c(c(CC=C(C)C)c5OC431)OC(C)(CCC=C(C)C)C=C6)C2=O (centres undefined) | -6.9
13 | CC[C@@]1(O)C[C@H](O[C@H]2C[C@H](N(C)C)[C@H](O)[C@H](C)O2)c2c(cc3c(c2O)C(=O)c2c(O)cccc2C3=O)[C@H]1C(=O)OC | -25
14 | COP(N)(=O)SC (centres undefined) | -11.7
15 | C[C@H](N)[C@H](O)c1ccc(O)c(O)c1 | 0.391
16 | N[C@@H](Cc1ccc(N(CCCl)CCCl)cc1)C(=O)O | -17.1
17 | CCN1C[C@]2(C)CC[C@H](OC)[C@@]34C1[C@]1(OCO[C@@]15C[C@H](OC)[C@H]1C[C@]3(O)[C@@H]5[C@H]1OC)[C@@H](OC(C)=O)[C@H]24 | -23.3
18 | CC(C)=CCOc1c2occc2cc2ccc(=O)oc12 | -3.8
19 | CNC(=O)O/N=C/C(C)(C)SC | -7.74
20 | O=[N+]([O-])c1cc(O)c(O)c([N+](=O)[O-])c1 | -14.1
21 | CN1[C@@H]2CC[C@H]1C[C@@H](OC(=O)[C@H](CO)c1ccccc1)C2 | -2.36

Look-ups from the list:
For growth inhibition [%], `CC(C)=CCOc1c2occc2cc2ccc(=O)oc12` has -3.8
For growth inhibition [%], `COC(=O)/C(C)=C\CC12OC(C)(C)C3CC(C=C4C(=O)c5c(OC)c6c(c(CC=C(C)C)c5OC431)OC(C)(CCC=C(C)C)C=C6)C2=O` (centres undefined) has -6.9
For growth inhibition [%], `Cc1cc(O)ccc1Cl` has 3.19

The listing continues.

Row | SMILES | growth inhibition [%]
22 | CCOP(=S)(OCC)SCSP(=S)(OCC)OCC | -14.9
23 | ClC1=C(Cl)C2(Cl)C3C(Cl)C(Cl)CC3C1(Cl)C2(Cl)Cl (centres undefined) | -7.29
24 | COc1c2c(c(CC=C(C)C)c3oc(=O)c(-c4ccc(O)cc4)c(O)c13)OC(C)(C)C=C2 | -9.15
25 | CNNC | -5.02
26 | O=C1C=CC(=O)c2c(O)cccc21 | -16.5
27 | CC1(C)C2(Cl)C(Cl)C(Cl)C(Cl)(C(Cl)Cl)C1(Cl)C2Cl (centres undefined) | -1.8
28 | COc1ccc2c(c1)[C@]13CCCC[C@@H]1[C@H](C2)N(C)CC3 | -2.31
29 | CCC(C)C(=O)c1c(O)c(C)c2oc3c(C)c(O)c(C(=O)C(C)CC)c(O)c3c2c1O (centres undefined) | -0.0293
30 | C[C@H]1O[C@@H](O[C@H]2[C@@H](O)C[C@H](O[C@H]3[C@@H](O)C[C@H](O[C@H]4CC[C@@]5(C)[C@H](CC[C@@H]6[C@@H]5CC[C@]5(C)[C@@H](C7=CC(=O)OC7)[C@@H](O)C[C@]65O)C4)O[C@@H]3C)O[C@@H]2C)C[C@H](O)[C@@H]1O | -3.64
31 | CC1=NCCc2c1[nH]c1cc(O)ccc21 | -21
32 | CSc1nc(NC(C)C)nc(NC(C)C)n1 | -4.7
33 | COc1ccc([C@H]2Oc3c(I)c(OC)cc(OC)c3C[C@@H]2O)cc1OC | -0.865
34 | CC1=CC(=O)C2=C(C)C[C@H](O)[C@@H]3[C@H](OC(=O)[C@H]3C)[C@H]12 | -5.91
35 | CNC(=O)ON=C(C)SC | -8.35
36 | COc1cc(OC)c2c(c1)O[C@H](c1ccc(OC)c(OC)c1)[C@@H](O)C2 | 1.02
37 | OC[C@@H]1CCCN2CCCC[C@H]12 | -7.06
38 | C1CCc2nnnn2CC1 | -13.7
39 | C=C[C@H]1CN2CC[C@H]1C[C@@H]2[C@@H](O)c1ccnc2ccccc12 | -6.89
40 | CC(Cc1ccc(O)cc1)NCC(O)c1cc(O)cc(O)c1 (centres undefined) | -6.39
41 | CC(C)CC(N(C)C)C1(c2ccc(Cl)cc2)CCC1 (centres undefined) | -25.1
42 | COc1ccc(CC2c3cc(OC)c(OC)cc3CCN2C)cc1OC (centres undefined) | -5.63

Row | SMILES | growth inhibition [%]
43 | N#C/C(=C\c1cccc(O)c1)C(=O)O [alpha-CYANO-3-HYDROXYCINNAMIC ACID] | -24.9
44 | O=C([O-])c1ccccc1-c1c2cc(Br)c(=O)cc-2oc2[c]([Hg+])c([O-])c(Br)cc12.[Na+].[Na+].[OH-] | 70.1
45 | O=c1[nH]c2ccccc2n1CCCN1CCC(n2c(=O)[nH]c3cc(Cl)ccc32)CC1 | -8.52
46 | CC(=O)O[C@@H]1C[C@@]2(C)[C@H](c3ccoc3)C[C@H]3O[C@]32[C@]2(C)C(=O)C(O)=C3C(C)(C)C(=O)C=C[C@]3(C)[C@@H]12 | -25
47 | COP(=S)(OC)Oc1ccc(SC)c(C)c1 | -10.2
48 | COP(=S)(OC)SCn1nnc2ccccc2c1=O | -20.4
49 | C#C[C@]1(O)CC[C@H]2[C@@H]3CCC4=CC(=O)CC[C@]4(C)[C@H]3CC[C@@]21C | -12.5
50 | CC(C)[N+](C)(CCC(C(N)=O)(c1ccccc1)c1ccccc1)C(C)C | 2.38
51 | COC(=O)COc1ccc(Cl)cc1Cl | -7.9
52 | C[C@]12CC[C@H]3[C@@H](CC[C@]4(O)C[C@@H](O)CC[C@]34C=O)[C@@]1(O)CC[C@@H]2C1=CC(=O)OC1 | 6.3
53 | NC(N)=NOCC[C@H](N)C(=O)O | -13.7
54 | C[C@]12CC[C@H](O)C[C@@H]1CC[C@@H]1[C@@H]2CC[C@]2(C)[C@@H](O)CC[C@@H]12 [5alpha-ANDROSTAN-3beta,17beta-DIOL] | 2.34
55 | CC[C@H](C)[C@H]1O[C@]2(C=C[C@@H]1C)C[C@@H]1C[C@@H](C/C=C(\C)[C@@H](O[C@H]3C[C@H](OC)[C@@H](O[C@H]4C[C@H](OC)[C@@H](O)[C@H](C)O4)[C@H](C)O3)[C@@H](C)/C=C/C=C3\CO[C@@H]4[C@H](O)C(C)=C[C@@H](C(=O)O1)[C@]34O)O2.CO[C@H]1C[C@H](O[C@H]2[C@H](C)O[C@@H](O[C@@H]3/C(C)=C/C[C@@H]4C[C@@H](C[C@]5(C=C[C@H](C)[C@@H](C(C)C)O5)O4)OC(=O)[C@@H]4C=C(C)[C@@H](O)[C@H]5OC/C(=C\C=C\[C@@H]3C)[C@]54O)C[C@@H]2OC)O[C@@H](C)[C@@H]1O | -4.76
56 | COc1cc([C@@H]2c3cc4c(cc3[C@H](OC(C)=O)[C@H]3COC(=O)[C@H]23)OCO4)cc(OC)c1OC | -3.15
57 | O=C(O)CNCP(=O)(O)O | -3.93
58 | CCCCOC(=O)c1ccccc1C(=O)OCc1ccccc1 | 9.93
59 | CC[C@@]1(O)C[C@H](O)c2c(cc3c(c2O)C(=O)c2c(O)ccc(O)c2C3=O)[C@H]1C(=O)OC | -8.7
60 | O=C(O)CCCc1ccc(N(CCCl)CCCl)cc1 | -3.41
61 | COc1ccc(C(=O)N2CCCC2=O)cc1 | -5.91
62 | COc1nc(NC(C)C)nc(NC(C)C)n1 | -8.96
63 | NCCc1cccc(O)c1 | -14.9

Row | SMILES | growth inhibition [%]
64 | Oc1noc2c1CCNC2 | -9.36
65 | Cc1c(O)c(C(=O)CC(C)C)c2oc3c(C(=O)CC(C)C)c(O)c(C)c(O)c3c2c1O | -12.6
66 | CCCC(C)C1(CC)C(=O)NC(=S)NC1=O (centres undefined) | -14.9
67 | COc1cc([C@@H]2c3cc4c(cc3[C@H](O)[C@H]3COC(=O)[C@@H]23)OCO4)cc(OC)c1OC | 10.5
68 | ClC1=C(Cl)C2(Cl)C3C(Cl)C=CC3C1(Cl)C2(Cl)Cl (centres undefined) | -3.63
69 | CC(=O)C1=C(O)[C@@H]2[C@H]3c4c[nH]c5cccc(c45)C[C@H]3C(C)(C)N2C1=O | -12.9
70 | N#Cc1c(Cl)cccc1Cl | -8.2
71 | CC(C)=CC1C(C(=O)OCc2cccc(Oc3ccccc3)c2)C1(C)C (centres undefined) | 9.02
72 | C[CH2][Hg][S]c1ccccc1C(=O)[O-].[Na+] | 90.1
73 | CC1(C)C(=O)C=C[C@]2(C)[C@H]3CC[C@@]4(C)[C@H](c5ccoc5)OC(=O)[C@H]5O[C@]54[C@]3(C)[C@H](O)C[C@@H]12 | 1.89
74 | COc1c2c(cc3c1OCO3)[C@]13C=C[C@H](OC)C[C@H]1N(C2)C[C@@H]3O | -9.49
75 | CC[C@@]1(O)C(=O)OCc2c1cc1n(c2=O)Cc2cc3ccccc3nc2-1 | -3
76 | O=C1C[C@@H]2OCC=C3CN4CC[C@]56c7ccccc7N1[C@H]5[C@H]2[C@H]3C[C@H]46 | -17.9
77 | COc1ccc2c(c1OC)C(=O)OC2[C@H]1c2cc3c(cc2CCN1C)OCO3 (stereo in doubt) | -30.4
78 | CC1(C)C(=O)C=CC2(C)C3CCC4(C)C(c5ccoc5)CC5OC54C3C(O)CC12 (centres undefined) | -12.6
79 | C#CCOS(=O)OC1CCCCC1Oc1ccc(C(C)(C)C)cc1 (centres undefined) | -5.76
80 | CC(C)=CCC[C@]1(C)C=Cc2c(O)c3c(c(CC=C(C)C)c2O1)O[C@]12C(=C[C@@H]4C[C@H]1C(C)(C)O[C@@]2(C/C=C(/C)C(=O)O)C4=O)C3=O | -6.59
81 | C[C@]12CCC3C(CC[C@H]4C[C@H](OS(=O)(=O)O)CC[C@]34C)C1CCC2=O (some centres undefined) | -22.3
82 | C=C(C)c1cc2cc(C(C)=O)c(O)cc2o1 | -23.3
83 | CC(C)OC(=O)Nc1cccc(Cl)c1 | -8.35
84 | CN1C[C@H](C(=O)N[C@]2(C)O[C@@]3(O)[C@@H]4CCCN4C(=O)[C@H](Cc4ccccc4)N3C2=O)C[C@@H]2c3cccc4[nH]cc(c34)C[C@H]21 | -0.422

Two consecutive records already listed, for reference:
Row | SMILES | growth inhibition [%]
73 | CC1(C)C(=O)C=C[C@]2(C)[C@H]3CC[C@@]4(C)[C@H](c5ccoc5)OC(=O)[C@H]5O[C@]54[C@]3(C)[C@H](O)C[C@@H]12 | 1.89
74 | COc1c2c(cc3c1OCO3)[C@]13C=C[C@H](OC)C[C@H]1N(C2)C[C@@H]3O | -9.49
